The record followed here is paper PMC11279727, “Bioprospecting, Synergistic Antifungal and Toxicological Aspects of the Hydroxychalcones and Their Association with Azole Derivates against Candida spp. for Treating Vulvovaginal Candidiasis” (Pharmaceutics, 2024).

The data set has as its system C33A cell line (uterine cervical carcinoma epithelium). As to the kind of experiment: In vitro cytotoxicity (resazurin, 72 h). The procedure: Cytotoxicity assays were performed on the C33A cell line (uterine cervical carcinoma epithelium) obtained from the ATCC (Manassas, VA, USA). 5 × 10^4 cells/well were added using RPMI medium with 10% fetal bovine serum into 96-well plates. Cells were incubated at 36.5 °C with 5% CO2 for 24 h to form a cell monolayer. 2-HC and 3′-HC were analyzed in range concentrations from 0.1–75 μg/mL. In combinations, 2-HC and 3′-HC were analyzed from 0.48–31.25 mg/L and 0.48–62.5 mg/L. Cells were exposed for 72 h, and after, cytotoxicity was assessed by adding 100 μL of resazurin (50 μM) and measured by a microplate reader at 570 nm–600 nm. A negative control with untreated cells (100% living cells) and a positive control (DMSO 40% to induce cell death) were also used. The results were evaluated in triplicate independent. […] Selective index (SI) was calculated using SI=IC50/MIC50 .
For orientation: Alamar Blue is a resazurin reagent that responds to reducing activity.

Where [1] appears, read: SI=IC50/MIC50, C33A vs C. albicans ATCC 90028.
Where [2] appears, read: SI=IC50/MIC50, C33A vs C. krusei ATCC 6258.
Where [3] appears, read: SI=IC50/MIC50, C33A vs C. tropicalis ATCC 750.

Turning to `O=C(/C=C/c1ccccc1)c1cccc(O)c1` [3′-HC, 3′-hydroxychalcone], the SI by setting is: under setting [1], 0.76; under setting [2], 1.52; under setting [3], 1.52.

Turning to `O=C(/C=C/c1ccccc1O)c1ccccc1` [2-HC, 2-hydroxychalcone], the SI runs as follows: under setting [1], 0.83; under setting [2], 0.83; under setting [3], 1.66.
